This is an account of results in PubChem BioAssay AID2685 (National Center for Advancing Translational Sciences (NCATS), 2010).

The test in a line: qHTS Assay for Lipid Storage Modulators in Drosophila S3 Cells.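 As to cell number change: cells counted by Cell Tracker Red CMTPX staining in the red channel.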 The following applies: BODIPY lipid droplet fluorescence, 18-24 h; for cell number change: measured here: cell count max response, cells fed with added oleic acid. The method in brief:
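Drosophila S3 cells loaded with oleic acid (400 uM, as added) and compounds at several concentrations; lipid droplets imaged by 488-nm laser-scanning cytometry, 500–530 nm intensity and object ratio to cell channel. Percent activity normalized to 20 uM Triacsin C.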
In general terms: qHTS replaces the single test concentration by a dilution series.

The mark [1] stands for this setting: measured here: lipid fluorescence (Fed channel) AC50, cells fed with added oleic acid.
The mark [2] stands for this setting: measured here: cell number channel AC50, cells fed with added oleic acid.

For orientation: AC50 means the concentration giving half of the maximal activity seen. Read a high AC50 as activity only at high concentration.

Some of the results follow. Further columns of the screen follow, without active or inactive calls. The list favours compounds with an active or inconclusive main result. Potencies come from curve fits of mixed quality, noted in brackets.

As to `CCOC(=O)c1c(C)n(-c2ccc(C)cc2)c2ccc(OCC(O)CN3CCN(C)CC3)cc12` (centres undefined), the cell number change is -28%. Moreover, the AC50 under setting [1] was 0.731 µM [falling, full curve, poor fit].
Take `O=[N+]([O-])c1cc(C(F)(F)F)ccc1Sc1nccn1Cc1ccccc1`: the cell number change is 129%. In addition, under setting [2], the AC50 is 18.4 µM [rising, single point]. For the same compound, the AC50 under setting [1] was 29.1 µM [rising, single point].
Consider `COc1cccc(NC(=S)N(Cc2ccco2)C(C)c2ccco2)c1` (centres undefined), for which the cell number change was 9.13%. Moreover, the AC50 under setting [1] was 6.51 µM [rising, single point].
With `Cc1ccc(Cn2cccc2/C=C2/C(=N)N3C=CSC3=NC2=O)cc1`, the cell number change is -24.6%. In addition, under setting [1], the AC50 was 16.4 µM [falling, single point].
For `Cc1cccc(CCN2C(Nc3ccccc3)=NC[C@@H]2C)c1`, the cell number change was determined as 27.4%.
`C=CCNC(=O)C1CC(=O)N(c2ccc(OCC(=O)N3CCCC3)cc2)C1` (centres undefined): the cell number change worked out at 1.39%. Also, under setting [2], the AC50 was 6.51 µM [rising, single point].
For the compound `Cc1cccc(-n2nc(C(=O)Nc3ccccc3)n3c(=O)cc(-c4ccccc4)nc23)c1`, the cell number change is 31.5%. Moreover, the AC50 under setting [2] was 29.1 µM [rising, single point]. In addition, the AC50 under setting [1] is 0.0326 µM [rising, full curve, poor fit].
Take `CC(C)(C)NC(=O)COC(=O)c1ccc(NC(=O)CC#N)cc1`: the cell number change is 46.6%. Moreover, the AC50 under setting [2] is 29.1 µM [rising, single point].
For the compound `CC(=O)c1ccc(NC(=S)NCCc2cccc(Cl)c2)cc1`, the cell number change was -21.7%. Further, under setting [1], the AC50 is 29.1 µM [falling, single point].
As for `COc1ccccc1CNC(=O)c1cc(-c2ccccc2C)n(CC2CC(c3cccc([N+](=O)[O-])c3)=NO2)n1` (centres undefined), the cell number change is -27.4%.
For the compound `CC(C)C(=O)N(Cc1ccc2c(c1)OCO2)Cc1ccccn1`, the cell number change is -0.953%.
On to `CN(C)CCCN(C(=O)c1ccc(S(=O)(=O)N2CCc3ccccc32)cc1)c1nc2ccc(Cl)cc2s1`, for which the cell number change is 56.9%. Under setting [1], the AC50 was 16.4 µM [rising, partial curve].
Turning to `CC(=O)N1CCC(C(=O)NC2CC(C)(C)Cc3c2cnn3-c2ccc(F)cc2)CC1` (centres undefined), the cell number change was -3.57%. The AC50 under setting [1] is 0.00517 µM [falling, full curve, poor fit].
In the case of `CCOc1cccc2sc(N(CCN(CC)CC)C(=O)c3cccc(N4C(=O)CCC4=O)c3)nc12`, the cell number change was -17.9%. In addition, the AC50 under setting [1] is 25.9 µM [falling, partial curve, poor fit].
Turning to `Cc1ccc(-n2c(SCc3nnc4n3CCC4)nnc2-c2ccccc2)cc1`, the cell number change was 30.9%. Also, the AC50 under setting [2] is 10.3 µM [rising, single point].
As for `Cc1c(C(=O)O)c(C(=O)O)nc2ccc(N3CCOCC3)cc12`, the cell number change is -29.9%. Moreover, the half-maximal activity concentration (AC50) under setting [1] was 29.1 µM [falling, single point].
On to `COc1ccccc1C(CNC(=O)C1CC(=O)N(Cc2ccc(C)cc2)C1)N1CCCC1` (centres undefined), for which the AC50 under setting [1] was 18.4 µM [rising, single point].
As to `COc1ccccc1N1C(=O)C2CCC(c3ccccc3)CC2C1=O` (centres undefined), the cell number change is 31.2%. In addition, the AC50 under setting [2] was 16.4 µM [rising, single point]. In addition, under setting [1], the AC50 was 18.4 µM [rising, partial curve].
Regarding `Cc1cc(S(=O)(=O)N2CCCCC2CCNC(=O)C(=O)NCC2CCCO2)ccc1F` (centres undefined), the cell number change was 2.19%. In addition, the concentration at half-maximal activity (AC50) under setting [2] was 7.31 µM [falling, single point]. The AC50 under setting [1] is 6.51 µM [falling, partial curve, poor fit].
For the compound `CCCC(c1nnnn1Cc1ccco1)N1CCN(C2CCCC2)CC1` (centres undefined), the cell number change was -51.8%. Also, the AC50 under setting [2] is 5.17 µM [falling, full curve]. In addition, under setting [1], the AC50 was 16.4 µM [falling, partial curve].
Turning to `CCc1nnc(SCC(=O)Nc2ccc(N3CCN(S(C)(=O)=O)CC3)cc2)o1`, the cell number change came out at 5.13%. Besides, under setting [1], the half-maximal activity concentration (AC50) is 29.1 µM [rising, single point].
Take `O=C(NCCc1cccc(F)c1)C1CCCN(c2nc3ccccc3s2)C1` (centres undefined): the cell number change was -13.3%.
Regarding `Cc1nnsc1-c1nnc(SCC(=O)c2ccc(F)cc2)n1C1CC1`, the cell number change was determined as 11.1%. Also, under setting [1], the AC50 is 0.411 µM [rising, full curve, poor fit].
Turning to `CCCCn1c(N)c(N(Cc2ccccc2OC)C(=O)c2cc(CC)c(C)s2)c(=O)[nH]c1=O`, the cell number change came out at 11.8%. Also, the AC50 under setting [1] is 0.082 µM [rising, full curve, poor fit].
Consider `CCCCN(CC)S(=O)(=O)c1ccc(C(=O)Nc2nnc(-c3cccs3)o2)cc1`, for which the cell number change is 94.5%. Moreover, the AC50 under setting [2] is 23.1 µM [rising, single point]. Moreover, the AC50 under setting [1] was 0.092 µM [falling, full curve, poor fit].
For the compound `COc1ccccc1CNC(=O)C1CCCC1`, the cell number change amounted to 7.26%. The AC50 under setting [1] was 29.1 µM [rising, single point].
`CC(=O)NS(=O)(=O)c1ccc(NC(=O)CC(C)c2ccccc2)cc1` (centres undefined): the cell number change was 9.76%. For the same compound, the AC50 under setting [1] is 0.00517 µM [falling, full curve, poor fit].
As for `O=C(O)c1cc(/C=C/c2ccc(N3CCOCC3)cc2)nc2ccccc12`, the cell number change is -52.9%. Further, the AC50 under setting [2] was 29.1 µM [falling, partial curve, poor fit].
On to `O=C(CN1C(=O)CSc2cc(S(=O)(=O)N3CCCCCC3)ccc21)NCCc1ccccc1`, for which the cell number change was determined as 9.8%. Further, the AC50 under setting [1] was 8.2 µM [rising, partial curve].
With `COc1cc2c(cc1OC)CN(C(=O)c1ccc(OC)c(S(=O)(=O)N3CCCC3)c1)CC2`, under setting [2], the AC50 is 0.461 µM [falling, partial curve, poor fit].
Regarding `Cc1ccccc1C(CC(=O)c1cccs1)C(C#N)C#N` (centres undefined), the cell number change was -26.7%. Under setting [1], the AC50 was 18.4 µM [falling, single point].
With `Cc1c(NC(=O)c2coc(=O)c(Br)c2)c(=O)n(-c2ccccc2)n1C`, the cell number change is 2.55%. For the same compound, the AC50 under setting [1] was 6.51 µM [rising, single point].
For the compound `CCOC(=O)C1CCCN(C(=S)NC(=O)c2cc(Br)ccc2Cl)C1` (centres undefined), under setting [1], the AC50 was 0.366 µM [falling, full curve].
Take `Cc1nc(-c2ccc(S(=O)(=O)Nc3cccc(Cl)c3)cc2)co1`: the cell number change amounted to 70%. In addition, under setting [2], the AC50 is 29.1 µM [rising, single point]. Further, the AC50 under setting [1] is 0.00517 µM [rising, full curve, poor fit].
As for `CCOC(=O)CC1COCCN1C(=O)c1cc(COc2ccc(F)cc2Cl)on1` (centres undefined), the cell number change is -19.4%. Further, the AC50 under setting [1] is 29.1 µM [falling, single point].
For `CC(C)(C)c1ccc(C(=O)N2CCC(=O)N(C(COCc3ccccc3)Cc3ccccc3)CC2)cc1` (centres undefined), the cell number change is -48.9%. For the same compound, the AC50 under setting [2] was 16.4 µM [falling, single point]. Further, the AC50 under setting [1] was 11.6 µM [falling, partial curve, poor fit].
In the case of `Cc1cccc(NC(=O)C(=O)N/N=C/c2ccncc2)c1`, the cell number change was 23.3%. Also, the AC50 under setting [2] is 0.116 µM [rising, full curve, poor fit].
Consider `Cc1ccc(SCCC(=O)N/N=C/c2ccccc2O)cc1`, for which the cell number change is -55.1%. The half-maximal activity concentration (AC50) under setting [2] was 16.4 µM [falling, partial curve].
In the case of `COCCNC(=O)/C(C#N)=C/C=C/c1ccccc1`, the cell number change was determined as 15%.
As to `O=C(NCc1ccccc1)C1CCCN(S(=O)(=O)c2ccc(F)cc2)C1` (centres undefined), the AC50 under setting [1] is 6.51 µM [rising, single point].
Same read-out and setting: under `C=CCn1c(N)c(C(=O)Nc2ccccc2)c2nc3ccccc3nc21` stands 6.51 µM [rising, single point].
For the compound `COc1cccc(-c2c(C(=O)N/N=C/c3sccc3C)nnn2-c2nonc2N)c1`, the cell number change is 24.2%.
Consider `COc1ccc(CCNC(=O)COc2ccc(C)nc2[N+](=O)[O-])cc1`, for which, under setting [2], the concentration at half-maximal activity (AC50) is 0.092 µM [rising, full curve, poor fit].
For `COc1ccc(/C=C2\CCCc3c2nc2ccccc2c3C(=O)OCC(=O)c2c(N)n(C)c(=O)n(C)c2=O)cc1`, under setting [1], the AC50 is 2.91 µM [rising, full curve].
Regarding `CCn1nnc2c(=O)oc3ccccc3c21`, the cell number change was -53.6%. Also, the AC50 under setting [2] was 0.92 µM [falling, full curve]. Moreover, the AC50 under setting [1] is 0.58 µM [falling, full curve].
Take `O=C(NCc1ccccn1)c1cc(-c2ccc(Cl)cc2)oc1C(F)(F)F`: the cell number change worked out at 24.9%.
For `Cc1cccc(C)c1NC(=O)CNC(=O)CNC(=O)Cc1cccc2ccccc12`, the cell number change came to 19.7%. The AC50 under setting [1] was 5.17 µM [rising, full curve, poor fit].
Turning to `CCCn1c2ccccc2c2nnc(SCCN3CCOCC3)nc21`, the cell number change was -18%. In addition, under setting [1], the AC50 is 18.4 µM [falling, single point].
In the case of `CO/N=C\CC(=O)Nc1ccc(Oc2ccccc2)cc1`, the cell number change was found to be 14%.
On to `O=C(NCC1CCCO1)C1CC(=O)N(c2ccccc2)C1` (centres undefined), for which the cell number change was -15.1%. Also, the half-maximal activity concentration (AC50) under setting [1] was 0.58 µM [falling, single point].
With `O=C(Nc1nnc(S(=O)(=O)N2CCOCC2)s1)c1cccc(Br)c1`, the cell number change was -8.26%. The AC50 under setting [1] is 11.6 µM [falling, partial curve, poor fit].
`CCCCc1cc(=O)oc2cc(C)cc(OC(C)C(=O)NCc3ccccn3)c12` (centres undefined): the cell number change worked out at 1.79%.
Regarding `O=C(N/C(=C\c1ccc(-c2ccccc2)o1)C(=O)N1CCOCC1)c1ccccc1`, the AC50 under setting [1] was 0.116 µM [rising, full curve, poor fit].
For `CC1Sc2ccc(S(=O)(=O)CCC(=O)N3CCN(c4ccccc4)CC3)cc2NC1=O` (centres undefined), the cell number change turned out to be 11.6%. Also, under setting [1], the half-maximal activity concentration (AC50) was 29.1 µM [rising, single point].
On to `O=S(=O)(c1ccc(Br)cc1)N1CCC(c2nc3ccccc3[nH]2)CC1`, for which the cell number change came out at 19.2%. Also, the AC50 under setting [1] is 0.116 µM [rising, full curve].
Turning to `Cc1ccc(C2(C)NC(=O)N(CC(=O)Nc3ccccc3C(=O)N3CCCCC3)C2=O)cc1` (centres undefined), the AC50 was 2.31 µM [falling, partial curve] under setting [2] and 20.6 µM [falling, partial curve] under setting [1].
In the case of `O=C1CC(N(C(=O)c2ccco2)c2ccc(F)cc2)C(=O)N1c1ccc(F)cc1` (centres undefined), the cell number change was -102%. For the same compound, the concentration at half-maximal activity (AC50) under setting [2] was 18.4 µM [falling, single point].
Regarding `COc1cccc(NC(=O)C(Cc2ccccc2)NC(=O)C2CCC(C)CC2)c1` (centres undefined), the cell number change came out at 13.3%.
Take `CCCSc1nsc(SCCC)c1C#N`: the cell number change was -1.76%. In addition, the AC50 under setting [1] is 4.11 µM [rising, full curve, poor fit].
